According to patent publication US6436890B1, “Antimicrobial detergent composition” (Inui Corporation, priority 1999, dated 2002):

Legend:
Experiment in all cases: microbe, parasite or virus in culture
Type in all cases: cell-based
[1] = test system: Bacillus subtilis ATCC 6633
Description: (§1) L-broth (5 ml) was inoculated with each bacteria and, after incubation at 37° C. for 18 hours, the MIC (minimum inhibitory concentration) was measured according to the Nutrient Broth liquid medium dilution method.

[2] = test system: Escherichia coli K12W3110
Description: as §1

[3] = test system: Pseudomonas aeruginosa ATCC 10145
Description: as §1

[4] = test system: Staphylococcus aureus IFO 12732
Description: as §1

Q: What does the source list for CCCCCCCCCCCCCCCC[n+]1ccccc1 [CPC, cetylpyridinium chloride, reference compound]?
A: MIC ([1]; ATCC6633, procedure 1 of 7, B. subtilis ATCC 6633): 3.8 µg/mL; MIC ([1]; ATCC6633, procedure 2 of 7, B. subtilis ATCC 6633): 3.1 µg/mL; MIC ([1]; ATCC6633, procedure 3 of 7, B. subtilis ATCC 6633): 3.8 µg/mL; MIC ([1]; ATCC6633, procedure 4 of 7, B. subtilis ATCC 6633): 6 µg/mL; MIC ([1]; ATCC6633, procedure 5 of 7, B. subtilis ATCC 6633): 6.2 µg/mL; MIC ([1]; ATCC6633, procedure 6 of 7, B. subtilis ATCC 6633): 7.7 µg/mL; MIC ([1]; ATCC6633, procedure 7 of 7, B. subtilis ATCC 6633): 9.6 µg/mL; MIC ([2]; K12W3110, procedure 1 of 7, E. coli K12W3110): 24.6 µg/mL; MIC ([2]; K12W3110, procedure 2 of 7, E. coli K12W3110): 30.7 µg/mL; MIC ([2]; K12W3110, procedure 3 of 7, E. coli K12W3110): 38.3 µg/mL; MIC ([2]; K12W3110, procedure 4 of 7, E. coli K12W3110): 38.3 µg/mL; MIC ([2]; K12W3110, procedure 5 of 7, E. coli K12W3110): 46.2 µg/mL; MIC ([2]; K12W3110, procedure 6 of 7, E. coli K12W3110): 49.2 µg/mL; MIC ([2]; K12W3110, procedure 7 of 7, E. coli K12W3110): 49.2 µg/mL; MIC ([3]; ATCC10145, procedure 1 of 7, P. aeruginosa ATCC 10145): 76.9 µg/mL; MIC ([3]; ATCC10145, procedure 2 of 7, P. aeruginosa ATCC 10145): 96.1 µg/mL; MIC ([3]; ATCC10145, procedure 3 of 7, P. aeruginosa ATCC 10145): 150 µg/mL; MIC ([3]; ATCC10145, procedure 4 of 7, P. aeruginosa ATCC 10145): 192 µg/mL; MIC ([3]; ATCC10145, procedure 5 of 7, P. aeruginosa ATCC 10145): 240 µg/mL; MIC ([3]; ATCC10145, procedure 6 of 7, P. aeruginosa ATCC 10145): 307 µg/mL; MIC ([3]; ATCC10145, procedure 7 of 7, P. aeruginosa ATCC 10145): 384 µg/mL; MIC ([4]; IFO12732, procedure 1 of 7, S. aureus IFO 12732): 0.2 µg/mL; MIC ([4]; IFO12732, procedure 2 of 7, S. aureus IFO 12732): 0.3 µg/mL; MIC ([4]; IFO12732, procedure 3 of 7, S. aureus IFO 12732): 0.4 µg/mL; MIC ([4]; IFO12732, procedure 4 of 7, S. aureus IFO 12732): 0.4 µg/mL; MIC ([4]; IFO12732, procedure 5 of 7, S. aureus IFO 12732): 0.9 µg/mL; MIC ([4]; IFO12732, procedure 6 of 7, S. aureus IFO 12732): 1.5 µg/mL; MIC ([4]; IFO12732, procedure 7 of 7, S. aureus IFO 12732): 2.4 µg/mL
